Measurements: patent publication US20170129929A1 (REGENTS OF THE UNIVERSITY OF COLORADO A BODY CORPORATE, published 2017)

Biological target: the molecule itself
Experiment: self-association (dimer); MALDI-TOF peak at 80663 m/z and non-reducing SDS-PAGE
Protocol: FIGS. 5A-D are set of graphs showing certain physical characteristics of LEDGF₁₋₃₂₆. A) SEC-HPLC: LEDGF₁₋₃₂₆ was size separated on Agilent Bio-SEC column using 25 mM Tris-HCL buffer containing 1 mM CaCl₂, pH 7.0. LEDGF₁₋₃₂₆ was eluted primarily as single peak at 11.5 min with about 5% higher molecular weight species. B) MALDI-TOF: LEDGF₁₋₃₂₆ has a molecular weight of 40 kDa, and may exist as a dimer. C) DLS: LEDGF₁₋₃₂₆ size was analyzed in 25 mM phosphate buffer, pH 7.0 using Nano ZS. […] D) SDS-PAGE: LEDGF₁₋₃₂₆ was size separated on a 4-15% SDS-PAGE gel under reducing (beta-mercaptoethanol and boiling) and non-reducing (no beta-mercaptoethanol and no boiling) conditions. The non-reducing gel indicated the presence of dimers of LEDGF₁₋₃₂₆.
The purity of LEDGF₁₋₃₂₆ protein was determined by size exclusion chromatography (SEC-HPLC) (FIG. 5A). […] The molecular weight of LEDGF₁₋₃₂₆ was confirmed by matrix assisted laser desorption/ionization (MALDI-TOF). The major peak obtained in MALDI-TOF spectrum was at 40314.32 and 80663.19 m/z (mass to charge) ratio (FIG. 5B). […] To investigate the existence of the dimers, SDS-PAGE of LEDGF₁₋₃₂₆ was run under reducing and non-reducing conditions (FIG. 5D). […] Under reducing/denaturing conditions the dimers dissociated into monomers.

B1: LEDGF1-326 (amino acids 1-326 of lens epithelium derived growth factor), as expressed from pLEDGF1-326 (pET-28a(+)) in Example 1 (other)
chain: MTRDFKPGDLIFAKMKGYPHWPARVDEVPDGAVKPPTNKLPIFFFGTHETAFLGPKDIFPYSENKEKYGKPNKRKGFNEGLWEIDNNPKVKFSSQQAATKQSNASSDVEVEEKETSVSKEDTDHEEKASNEDVTKAVDITTPKAARRGRKRKAEKQVETEEAGVVTTATASVNLKVSPKRGRPAATEVKIPKPRGRPKMVKQPCPSESDIITEEDKSKKKGQEEKQPKKQPKKDEEGQKEEDKPRKEPDKKEGKKEVESKRKNLAKTGVTSTSDSEEEGDDQEGEKKRKGGRNFQTAHRRNMLKGQHEKEAADRKRKQEEQMETEQ
notes: Produced in E. coli BL21(DE3); not shown: N-terminal His-tag from the pET-28a(+) vector
B1: binds.
